One substance from patent publication US20230235082 (published 2023) can be followed below.

This data set can be described thus: general procedure: peptide synthesis; PyBOP. As to conditions: late stage modification step.

As for Acid-Suc-MMAE, the step yield is reported as 77.4%.
